The values that follow come from US10908141B2, “Methods and kits for detecting non-luminescent or weakly luminescent metals” (New York University, priority 2012, dated 2021).

The data set in a line: In vitro time-resolved fluorescent detection of sensitized Gd chelate with DTPA-Tb. As to conditions: collision model fit, ±s.e.

For “carbostyril-124-diethylenetriaminepentaacetic acid-Gadolinium [cs124-DTPA-Gd]”, the “Probability of electron transfer upon collision” value was 0.82±0.005694.
